# PubChem BioAssay AID602313 (National Center for Advancing Translational Sciences (NCATS), 2012)
# The campaign covered roughly 390,000 compounds. About 760 (0.19%) were called active. Inconclusive results, whose numbers are uncertain, are shown with a selection of clear calls. Calls come from the whole dose curve; as a rule, active = well fitted inhibition curve with a large enough effect; inconclusive = small, poorly fitted or top-dose-only effect; inactive = flat fitted curve, though single readings scatter. Potencies beside an inconclusive call are fits to weak or partial responses and may not hold up.
# Experiment: qHTS for Inhibitors of Vif-A3F Interactions: qHTS; note: nearly all actives have a fitted effect of over 65% in size
# Conditions: HeLa A3F-eYFP + Vif (tagged APOBEC3F with the HIV-1 protein that degrades it), YFP fluorescence increase; series mostly up to 46.1 µM
# How it was run: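 HeLa cells stably expressing A3F-eYFP plus Vif, plated and incubated overnight at 37 deg C, then exposed to compounds overnight at 37 deg C. Blocked degradation read as raised yellow fluorescence (Ex 488/Em 500-530).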
# Potency is the fitted concentration of half-maximal effect.
row,SMILES,Potency
1,O=C(/C=C/c1ccco1)Nc1ccccn1,"inconclusive: 3.55 µM [inhibitor, single point]"
2,CN1CCc2c(sc3nc(SCC(N)=O)n(-c4ccccc4)c(=O)c23)C1,"inconclusive: 35.5 µM [inhibitor, single point]"
3,Cc1nc2nc(SCC(=O)NCCCN3CCCC3)nn2c(C)c1Cc1ccccc1Cl,"inconclusive: 8.91 µM [inhibitor, partial curve, poor fit]"
4,O=C(c1cccc(C(F)(F)F)c1)C1CCCN(C(=O)/C=C/c2cnc[nH]2)C1 (stereo not given),"inconclusive: 1.78 µM [inhibitor, partial curve, poor fit]"
5,CCCOC(=O)c1c(NC(=O)CCC(=O)O)sc2c1CCCCC2,"inconclusive: 2.24 µM [inhibitor, full curve, poor fit]"
6,CCOC(=O)c1c(C)c(C(=O)NCCCOC)c(C)n1C,"inconclusive: 31.6 µM [inhibitor, partial curve, poor fit]"
7,CCCn1nnc(NC(=S)NC(=O)Cc2ccccc2)n1,"inconclusive: 7.08 µM [inhibitor, partial curve, poor fit]"
8,O=C(c1ccco1)N1CCN(C(=S)Nc2ccccc2C(F)(F)F)CC1,"inconclusive: 10 µM [inhibitor, partial curve, poor fit]"
9,O=C(CN1C(=O)c2ccccc2C1=O)NCc1ccc(C(=O)O)cc1,"inconclusive: 35.5 µM [inhibitor, single point]"
10,N#Cc1c(N)n(CCNC(=O)c2cccs2)c2nc3ccccc3nc12,"inconclusive: 15.8 µM [inhibitor, single point]"
11,CCCCn1c(N)c(N(CCC(C)C)C(=O)c2ccc(-c3ccc([N+](=O)[O-])cc3)o2)c(=O)[nH]c1=O,"inconclusive: 3.98 µM [inhibitor, single point]"
12,COc1ccc(N2C(=O)c3cccc4c(N(C)CCO)ccc(c34)C2=O)cc1,"inconclusive: 15.8 µM [inhibitor, partial curve, poor fit]"
13,CCCc1cc(NCc2ccccn2)n2nc(C)c(-c3ccccc3)c2n1,"inconclusive: 6.31 µM [inhibitor, single point]"
14,Cc1ccc(C)c(NC(=S)NC(=O)c2cncc(Br)c2)c1,"inconclusive: 12.6 µM [inhibitor, partial curve, poor fit]"
15,CCOc1ccc(C(=O)C[n+]2cccc3cc(C)ccc32)cc1,"inconclusive: 35.5 µM [inhibitor, single point]"
16,O=C(O)CSc1ncnc2scc(-c3ccc(Br)cc3)c12,"inconclusive: 35.5 µM [inhibitor, single point]"
17,Oc1ccccc1-c1nc2c3ccccc3c3ccccc3c2[nH]1,"inconclusive: 35.5 µM [inhibitor, single point]"
18,Cc1ccc(/C=C/C(=O)NC2CCCCCCC2)o1,"inconclusive: 35.5 µM [inhibitor, single point]"
19,COc1ccc(Cn2c3ccc(OC)cc3c3nc4ccccc4nc32)cc1,"inconclusive: 10 µM [inhibitor, partial curve, poor fit]"
20,CN(C(=O)COC(=O)c1ccc([N+](=O)[O-])cc1N)c1ccccc1,"inconclusive: 35.5 µM [inhibitor, single point]"
21,O=C(Cc1cccc2ccccc12)N/N=C/c1ccncc1,"inconclusive: 8.91 µM [inhibitor, partial curve, poor fit]"
22,COc1ccccc1CNC(=O)c1cc2cccc3c2n1CCS3,"inconclusive: 17.8 µM [inhibitor, partial curve, poor fit]"

row,SMILES,Potency
1,O=C(C[C@H]1C[C@H](C(=O)N2CCCCC2)[C@@]2(CCc3ccccc3)c3[nH]c4cc(-c5ccco5)ccc4c3CCN2C1=O)NCCN1CCOCC1,"inconclusive: 35.5 µM [inhibitor, single point]"
2,Cc1cc(O)c(C(C)C)cc1N=Cc1ccc([N+](=O)[O-])cc1,inactive
3,CCS(=O)(=O)N1N=C(c2cccc(NS(C)(=O)=O)c2)CC1c1ccc(C)cc1 (stereo not given),active: 11.2 µM
4,CC1(C)CC(N2CCOCC2)=CC(=[N+]2CCOCC2)C1,inactive
5,Cc1ccc(CNC(=O)c2ccc3c(c2)NC(=O)C(CS(=O)(=O)Cc2cccc(C)c2)N3)cc1 (stereo not given),active: 22.4 µM
6,Cc1cc2c(cc1C)C(=O)C(Br)=C(N)C2=O,"inconclusive: 22.4 µM [inhibitor, single point]"
7,Cn1c(CNC(=O)CSc2nc(-c3ccccc3F)nc3cc(=O)[nH]n23)nc2ccccc21,inactive
8,C=CCn1c(N)c(C(=O)NCC2CCCO2)c2nc3ccccc3nc21 (stereo not given),inactive
9,COc1ccc(N(C(=O)CSCC(=O)Nc2cc(C)on2)C(C(=O)NC2CCCCC2)c2ccc(O)c(O)c2)cc1 (stereo not given),inactive
10,Cc1ccc2cc(C)c(SCC(=O)NCC3CCCO3)nc2c1 (stereo not given),"inconclusive: 3.55 µM [inhibitor, single point]"
11,CCCC(=O)Nc1ccc(Cc2ccc(NC(=O)CCC)c(C(=O)O)c2)cc1C(=O)O,"inconclusive: 2.82 µM [inhibitor, single point]"
12,COc1cc(/C=C2/SC(=S)N(Cc3ccccc3)C2=O)ccc1O,"inconclusive: 20 µM [inhibitor, partial curve, poor fit]"
13,CC1(C)C(=O)N(c2ccccc2Cl)C(=O)c2ccccc21,"inconclusive: 3.16 µM [inhibitor, single point]"
14,CCOC(=O)c1c(S(=O)(=O)NCC(=O)Nc2cccc(SC)c2)c(C)n(C)c1C,inactive
15,O=C(/C=C/c1ccco1)Nc1ccc(C(=O)N2CCOCC2)cc1,inactive
16,CCCCCCCCNC(CO)(CO)CO,"inconclusive: 3.55 µM [inhibitor, single point]"
17,CCOC(=O)N1CCN(C(=O)CSc2ccc(-c3ccncc3)nn2)CC1,"inconclusive: 35.5 µM [inhibitor, single point]"
18,COCCn1c(CNC(=O)c2ccccc2C)nc2cccnc21,"inconclusive: 35.5 µM [inhibitor, single point]"
19,Cc1ccc(CNC(=O)C2CCCN(c3nc4ccccc4n4cccc34)C2)cc1 (stereo not given),"inconclusive: 17.8 µM [inhibitor, partial curve, poor fit]"
20,CCN1CCCC1CNC(=O)c1cc2c(-c3ccc(Cl)cc3)nn(C)c2s1 (stereo not given),"inconclusive: 20 µM [inhibitor, partial curve, poor fit]"
21,NC(N)=N/N=C/c1cc([N+](=O)[O-])ccc1O,inactive
22,Cc1ccc(-c2nnc(NC(=O)CCS(=O)(=O)c3ccc(F)cc3)o2)c(C)c1,"inconclusive: 35.5 µM [inhibitor, single point]"

# Shown tab-delimited: 2 of the compounds above.
row	SMILES	Potency
16	CCCCCCCCNC(CO)(CO)CO	inconclusive: 3.55 µM [inhibitor, single point]
17	CCOC(=O)N1CCN(C(=O)CSc2ccc(-c3ccncc3)nn2)CC1	inconclusive: 35.5 µM [inhibitor, single point]

# (listing goes on)

row,SMILES,Potency
1,O=C(COc1ncnc2ccccc12)NCc1ccc2c(c1)OCO2,inactive
2,CC1(C)CC(=O)C(C=NCC2CCN(C(=O)Cc3ccccc3)CC2)=C(O)C1,"inconclusive: 1.58 µM [inhibitor, partial curve, poor fit]"
3,O=C1C2CCCN2C(c2ccco2)N1c1ccc(F)cc1 (stereo not given),"inconclusive: 0.891 µM [inhibitor, full curve, poor fit]"
4,Cc1noc(C)c1S(=O)(=O)Nc1ccc(C(=O)N2CCN(c3ccc(F)cc3)CC2)cc1,"inconclusive: 25.1 µM [inhibitor, single point]"
5,O=C1[C@H]2[C@@H](c3ccccc3)N[C@]3(CCCN(Cc4ccc(Br)cc4)C3=O)[C@H]2C(=O)N1Cc1ccccc1,inactive
6,COc1cc(C(=O)NCc2ccccc2)ccc1OC(F)F,"inconclusive: 1.78 µM [inhibitor, partial curve, poor fit]"
7,CCOc1cc(CNc2ccc(N3CCCCC3)cc2)cc(Br)c1OCC(=O)NC(C)(C)C,"inconclusive: 35.5 µM [inhibitor, single point]"
8,Cc1cc(C)nc(N/N=C/c2ccccc2OCc2ccc(Cl)cc2)n1,"inconclusive: 35.5 µM [inhibitor, single point]"
9,CCOC(=O)C1=C(COc2ccc(C)cc2)NC(=O)NC1c1cc(C)ccc1C (stereo not given),inactive
10,Cc1ccc(C)c2nc3sc(C(=O)N4CCOCC4)c(N)c3cc12,"inconclusive: 20 µM [inhibitor, partial curve, poor fit]"
11,CC(=O)N/C(=C\c1ccccc1)C(=O)OCC(=O)Nc1cc(S(=O)(=O)N(C)C)ccc1C,"inconclusive: 10 µM [inhibitor, partial curve, poor fit]"
12,CN1/C(=C/C2CC(=O)N(c3cccc4ccccc34)C2=O)C(C)(C)c2ccccc21 (stereo not given),"inconclusive: 35.5 µM [inhibitor, single point]"
13,Cc1nc([N+](=O)[O-])cn1-c1nc2ccccn2c1[N+](=O)[O-],inactive
14,Cc1ccc(NS(=O)(=O)c2cc(C(=O)Nc3cccc([N+](=O)[O-])c3)ccc2C)cc1,"inconclusive: 35.5 µM [inhibitor, single point]"
15,Cc1sc2ncnc(Sc3ccccc3C(=O)Nc3ccc(Br)cc3)c2c1C,inactive
16,S=c1nc(-c2ccc(Br)cc2)[nH]c2ccccc12,inactive
17,O=C(/C=C/c1ccccc1)/C=C/c1ccccc1,"inconclusive: 3.55 µM [inhibitor, single point]"
18,CN1C2CC(OC(=O)C(CO)c3ccccc3)CC1C1OC12 (stereo not given),inactive
19,Cc1cc(CNC(=O)c2ccc3nc(Cc4ccccc4F)oc3c2)nn1C,"inconclusive: 20 µM [inhibitor, single point]"
20,O=c1cc(CSc2nnnn2-c2ccc(O)cc2)nc2sccn12,"inconclusive: 5.62 µM [inhibitor, partial curve]"
21,Cc1c(/C=C2\SC(=O)N(CC(=O)Nc3ccc4c(c3)OCO4)C2=O)c2ccccc2n1C,"inconclusive: 35.5 µM [inhibitor, single point]"
